This assay concerns the target His-tagged Escherichia coli bacterioferritin (C-terminal His-tag) (E. coli) (UniProt P0ABD3). The experiment in a line: dynamic light scattering; Bfr acidified to pH 2.0, 23 °C, 90 min (declustering); both purified.

Chains of the proteins cited; added tags and fusions are not shown.
UniProt P0ABD3: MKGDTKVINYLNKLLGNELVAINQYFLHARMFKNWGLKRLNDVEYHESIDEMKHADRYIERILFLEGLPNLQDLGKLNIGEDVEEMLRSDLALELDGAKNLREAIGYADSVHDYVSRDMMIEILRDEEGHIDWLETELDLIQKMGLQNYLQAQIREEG

These are yes or no findings as the source states them, for the method shown.

With “His-tagged Escherichia coli bacterioferritin (C-terminal His-tag) (from UniProt P0ABD3 1-158)”, the binding result is “no binding (condition: at pH 2.0)”.

Source of the values: article PMC10301331.
